These are yes or no findings as the source states them, for the method shown.
T1: Sla1 (S. cerevisiae), P32790
T1 chain: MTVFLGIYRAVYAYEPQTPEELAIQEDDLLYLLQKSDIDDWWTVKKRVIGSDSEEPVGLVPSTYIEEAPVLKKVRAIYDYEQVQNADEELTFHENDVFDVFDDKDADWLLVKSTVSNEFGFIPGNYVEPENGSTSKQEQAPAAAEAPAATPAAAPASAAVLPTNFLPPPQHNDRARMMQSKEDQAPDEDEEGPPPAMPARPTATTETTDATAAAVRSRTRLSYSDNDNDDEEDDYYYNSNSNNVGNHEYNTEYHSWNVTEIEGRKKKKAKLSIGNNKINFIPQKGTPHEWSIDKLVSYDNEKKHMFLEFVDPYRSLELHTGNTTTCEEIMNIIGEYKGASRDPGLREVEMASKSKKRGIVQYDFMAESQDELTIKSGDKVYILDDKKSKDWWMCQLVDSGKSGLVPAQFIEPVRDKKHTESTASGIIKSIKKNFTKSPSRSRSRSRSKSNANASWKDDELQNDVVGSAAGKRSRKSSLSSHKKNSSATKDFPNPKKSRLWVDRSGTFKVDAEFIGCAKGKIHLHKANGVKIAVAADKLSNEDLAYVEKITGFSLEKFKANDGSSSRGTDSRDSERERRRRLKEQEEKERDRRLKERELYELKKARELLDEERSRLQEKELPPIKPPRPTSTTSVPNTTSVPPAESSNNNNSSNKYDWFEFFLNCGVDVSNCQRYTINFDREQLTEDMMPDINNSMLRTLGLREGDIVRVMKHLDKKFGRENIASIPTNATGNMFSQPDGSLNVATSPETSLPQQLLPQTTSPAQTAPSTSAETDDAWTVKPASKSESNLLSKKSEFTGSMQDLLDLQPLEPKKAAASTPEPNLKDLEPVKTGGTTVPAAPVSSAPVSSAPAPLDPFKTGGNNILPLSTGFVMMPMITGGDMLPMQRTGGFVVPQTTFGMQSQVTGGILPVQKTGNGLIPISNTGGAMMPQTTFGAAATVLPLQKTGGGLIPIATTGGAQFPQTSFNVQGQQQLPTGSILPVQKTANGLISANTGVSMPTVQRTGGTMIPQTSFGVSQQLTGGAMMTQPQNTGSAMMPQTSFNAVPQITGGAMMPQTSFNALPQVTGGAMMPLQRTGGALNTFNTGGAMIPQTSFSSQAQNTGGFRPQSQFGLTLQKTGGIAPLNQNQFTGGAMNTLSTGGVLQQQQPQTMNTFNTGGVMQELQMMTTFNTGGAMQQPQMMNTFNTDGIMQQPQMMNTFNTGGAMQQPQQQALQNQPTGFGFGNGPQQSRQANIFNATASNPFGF

T2: Ede1 (S. cerevisiae) (UniProt P34216)
T2 sequence: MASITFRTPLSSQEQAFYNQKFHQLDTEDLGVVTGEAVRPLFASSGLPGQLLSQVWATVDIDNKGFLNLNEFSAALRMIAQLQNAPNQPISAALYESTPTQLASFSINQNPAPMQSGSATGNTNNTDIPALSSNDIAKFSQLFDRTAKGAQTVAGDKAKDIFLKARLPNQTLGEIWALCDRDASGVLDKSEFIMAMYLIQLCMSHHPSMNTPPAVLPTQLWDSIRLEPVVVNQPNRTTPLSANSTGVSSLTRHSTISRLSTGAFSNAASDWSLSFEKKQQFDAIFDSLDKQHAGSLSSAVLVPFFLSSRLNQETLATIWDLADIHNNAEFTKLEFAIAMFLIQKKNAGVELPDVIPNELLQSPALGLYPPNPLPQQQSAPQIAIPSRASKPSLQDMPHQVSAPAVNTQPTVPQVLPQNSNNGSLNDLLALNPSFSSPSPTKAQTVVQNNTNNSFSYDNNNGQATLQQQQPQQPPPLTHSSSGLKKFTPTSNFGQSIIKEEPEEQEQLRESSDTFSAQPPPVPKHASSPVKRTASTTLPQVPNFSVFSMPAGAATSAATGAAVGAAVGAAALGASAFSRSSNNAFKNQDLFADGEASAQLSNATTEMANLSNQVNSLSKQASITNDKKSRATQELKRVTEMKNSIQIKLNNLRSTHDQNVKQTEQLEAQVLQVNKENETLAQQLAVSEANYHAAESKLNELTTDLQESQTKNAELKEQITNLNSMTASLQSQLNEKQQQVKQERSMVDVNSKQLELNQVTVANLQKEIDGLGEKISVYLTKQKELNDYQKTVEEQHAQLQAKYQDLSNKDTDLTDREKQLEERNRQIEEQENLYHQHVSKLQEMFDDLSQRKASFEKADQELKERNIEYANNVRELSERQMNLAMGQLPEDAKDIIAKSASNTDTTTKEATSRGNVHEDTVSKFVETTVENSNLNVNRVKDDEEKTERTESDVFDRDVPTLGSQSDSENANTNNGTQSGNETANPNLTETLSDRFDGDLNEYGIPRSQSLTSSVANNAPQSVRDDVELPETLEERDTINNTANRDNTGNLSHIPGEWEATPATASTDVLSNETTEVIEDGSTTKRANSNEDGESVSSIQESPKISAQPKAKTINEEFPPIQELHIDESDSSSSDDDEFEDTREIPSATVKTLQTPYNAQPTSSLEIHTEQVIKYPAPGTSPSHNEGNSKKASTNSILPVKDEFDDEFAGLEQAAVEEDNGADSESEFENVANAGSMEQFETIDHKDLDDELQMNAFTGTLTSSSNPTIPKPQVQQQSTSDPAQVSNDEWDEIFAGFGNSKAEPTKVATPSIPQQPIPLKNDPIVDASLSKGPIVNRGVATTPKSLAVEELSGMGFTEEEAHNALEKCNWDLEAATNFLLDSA

T3: Pan1 (S. cerevisiae, UniProt P32521 1-1480)
T3 construct: Pan1, S. cerevisiae; also called Pan1-1myeGFP; Pan1-3mCherry; source: chromosomally tagged at the endogenous locus, in the cytoplasm of living S. cerevisiae cells
T3 sequence (looked up): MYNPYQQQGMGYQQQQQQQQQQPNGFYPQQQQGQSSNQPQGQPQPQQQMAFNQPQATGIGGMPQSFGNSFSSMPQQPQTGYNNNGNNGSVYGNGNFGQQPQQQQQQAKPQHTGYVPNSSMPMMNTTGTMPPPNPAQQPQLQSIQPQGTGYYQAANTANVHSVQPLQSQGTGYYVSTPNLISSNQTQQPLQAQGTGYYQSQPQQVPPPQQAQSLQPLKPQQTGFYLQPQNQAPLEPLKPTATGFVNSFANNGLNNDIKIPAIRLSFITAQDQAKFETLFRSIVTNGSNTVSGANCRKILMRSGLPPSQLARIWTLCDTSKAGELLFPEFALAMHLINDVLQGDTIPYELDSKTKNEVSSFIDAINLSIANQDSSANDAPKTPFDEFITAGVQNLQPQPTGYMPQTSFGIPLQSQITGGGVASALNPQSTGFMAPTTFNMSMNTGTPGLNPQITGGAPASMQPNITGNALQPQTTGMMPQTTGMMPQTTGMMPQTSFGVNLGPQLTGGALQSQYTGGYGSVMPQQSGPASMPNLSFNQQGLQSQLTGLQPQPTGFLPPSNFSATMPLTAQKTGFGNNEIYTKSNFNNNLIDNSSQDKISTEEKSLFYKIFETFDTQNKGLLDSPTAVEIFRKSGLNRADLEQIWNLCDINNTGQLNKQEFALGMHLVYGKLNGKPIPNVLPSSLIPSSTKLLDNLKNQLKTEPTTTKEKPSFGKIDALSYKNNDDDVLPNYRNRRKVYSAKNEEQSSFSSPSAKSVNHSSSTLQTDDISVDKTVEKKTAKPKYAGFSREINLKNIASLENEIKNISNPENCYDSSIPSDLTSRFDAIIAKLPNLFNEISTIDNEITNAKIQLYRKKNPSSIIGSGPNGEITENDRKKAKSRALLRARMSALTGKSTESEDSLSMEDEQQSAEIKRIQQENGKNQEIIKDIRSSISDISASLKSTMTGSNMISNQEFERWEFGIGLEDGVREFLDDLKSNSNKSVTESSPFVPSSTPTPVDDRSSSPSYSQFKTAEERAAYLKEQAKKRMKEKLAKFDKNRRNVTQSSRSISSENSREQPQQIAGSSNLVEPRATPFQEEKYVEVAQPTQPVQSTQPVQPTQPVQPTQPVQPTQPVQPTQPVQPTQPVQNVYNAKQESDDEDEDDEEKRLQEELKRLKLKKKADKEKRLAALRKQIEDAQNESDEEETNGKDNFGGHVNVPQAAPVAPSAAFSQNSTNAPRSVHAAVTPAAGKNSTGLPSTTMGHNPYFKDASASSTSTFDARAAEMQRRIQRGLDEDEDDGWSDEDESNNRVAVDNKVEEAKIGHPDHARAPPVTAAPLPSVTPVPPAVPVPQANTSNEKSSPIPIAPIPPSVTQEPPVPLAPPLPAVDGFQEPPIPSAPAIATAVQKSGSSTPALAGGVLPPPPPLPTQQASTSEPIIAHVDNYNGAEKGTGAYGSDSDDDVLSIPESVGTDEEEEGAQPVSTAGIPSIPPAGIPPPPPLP

B1: Sla2, P33338 1-968 (protein)
chain: MSRIDSDLQKALKKACSVEETAPKRKHVRACIVYTWDHQSSKAVFTTLKTLPLANDEVQLFKMLIVLHKIIQEGHPSALAEAIRDRDWIRSLGRVHSGGSSYSKLIREYVRYLVLKLDFHAHHRGFNNGTFEYEEYVSLVSVSDPDEGYETILDLMSLQDSLDEFSQIIFASIQSERRNTECKISALIPLIAESYGIYKFITSMLRAMHRQLNDAEGDAALQPLKERYELQHARLFEFYADCSSVKYLTTLVTIPKLPVDAPDVFLINDVDESKEIKFKKREPSVTPARTPARTPTPTPPVVAEPAISPRPVSQRTTSTPTGYLQTMPTGATTGMMIPTATGAANAIFPQATAQMQPDFWANQQAQFANEQNRLEQERVQQLQQQQAQQELFQQQLQKAQQDMMNMQLQQQNQHQNDLIALTNQYEKDQALLQQYDQRVQQLESEITTMDSTASKQLANKDEQLTALQDQLDVWERKYESLAKLYSQLRQEHLNLLPRFKKLQLKVNSAQESIQKKEQLEHKLKQKDLQMAELVKDRDRARLELERSINNAEADSAAATAAAETMTQDKMNPILDAILESGINTIQESVYNLDSPLSWSGPLTPPTFLLSLLESTSENATEFATSFNNLIVDGLAHGDQTEVIHCVSDFSTSMATLVTNSKAYAVTTLPQEQSDQILTLVKRCAREAQYFFEDLMSENLNQVGDEEKTDIVINANVDMQEKLQELSLAIEPLLNIQSVKSNKETNPHSELVATADKIVKSSEHLRVDVPKPLLSLALMIIDAVVALVKAAIQCQNEIATTTSIPLNQFYLKNSRWTEGLISAAKAVAGATNVLITTASKLITSEDNENTSPEQFIVASKEVAASTIQLVAASRVKTSIHSKAQDKLEHCSKDVTDACRSLGNHVMGMIEDDHSTSQQQQPLDFTSEHTLKTAEMEQQVEILKLEQSLSNARKRLGEIRRHAYYNQDDD
B2: Yap1802 (protein, UniProt P53309 1-568)
chain: MSSLYTKLVKGATKIKMAPPKQKYVDPILSGTSSARGLQEITHALDIRLSDTAWTIVYKALIVLHLMIQQGEKDVTLRHYSHNLDVFQLRKISHTTKWSSNDMRALQRYDEYLKTRCEEYGRLGMDHLRDNYSSLKLGSKNQLSMDEELDHVESLEIQINALIRNKYSVSDLENHLLLYAFQLLVQDLLGLYNALNEGVITLLESFFELSIEHAKRTLDLYKDFVDMTEYVVRYLKIGKAVGLKIPVIKHITTKLINSLEEHLREETKRQRGEPSEPQQDRKPSTAISSTSSHNNNSNDKNKSIAQKKLEQIREQKRLLEQQLQNQQLLISPTVPQDAYNPFGSQQQDLNNDTFSFEPTQPQMTAQVPQPTANPFLIPQQQQQALQLTSASTMPQPSEIQITPNLNNQQTGMYASNLQYTPNFTGSGFGGYTTTENNAIMTGTLDPTKTGSNNPFSLENIAREQQQQNFQNSPNPFTLQQAQTTPILAHSQTGNPFQAQNVVTSPMGTYMTNPVAGQLQYASTGAQQQPQMMQGQQTGYVMVPTAFVPINQQQQQQQHQQENPNLIDI

Key:
[1] = biological target: T1, Sla1 (S. cerevisiae), P32790; experiment: condition: 1000 nM (only Kdeff-values < 1000 nM are shown); fluorescence cross-correlation spectroscopy (FCCS); in the cytoplasm of living yeast cells; first-named protein green (3myeGFP or 1myeGFP; eGFP for Don1), second red (3mCherry); self-interaction in diploid strains with one allele of each colour; apparent or effective KD (Kdeff) from single-cell measurements; only Kdeff values < 1000 nM are shown; values for …; details: remark: other sources report otherwise
Ede1 (S. cerevisiae) = biological target: T2, Ede1 (S. cerevisiae); experiment: condition: 1000 nM (only Kdeff-values < 1000 nM are shown); fluorescence cross-correlation spectroscopy (FCCS); in the cytoplasm of living yeast cells; first-named protein green (3myeGFP or 1myeGFP; eGFP for Don1), second red (3mCherry); self-interaction in diploid strains with one allele of each colour; apparent or effective KD (Kdeff) from single-cell measurements; only Kdeff values < 1000 nM are shown; values for self-interactions are upper limits
Pan1 = biological target: T3, Pan1; experiment: as above

| Binder | binding [1] | binding (Ede1 (S. cerevisiae)) | binding (Pan1) |
| --- | --- | --- | --- |
| B1 | no binding | – | – |
| B2 | – | no binding | no binding |

Reference: PMC4299599, “Quantification of cytosolic interactions identifies Ede1 oligomers as key organizers of endocytosis” (Molecular Systems Biology, 2014)
